Results reported in US9763942B2, “Serine/threonine kinase inhibitors” (Array BioPharma Inc., priority 2013, dated 2017).
Some results were stated once for a whole list of compounds, not compound by compound.

By UniProt entry, the sequences of proteins in these tests, tags left out. Residues count along the entry.
UniProt P28482, 8-360: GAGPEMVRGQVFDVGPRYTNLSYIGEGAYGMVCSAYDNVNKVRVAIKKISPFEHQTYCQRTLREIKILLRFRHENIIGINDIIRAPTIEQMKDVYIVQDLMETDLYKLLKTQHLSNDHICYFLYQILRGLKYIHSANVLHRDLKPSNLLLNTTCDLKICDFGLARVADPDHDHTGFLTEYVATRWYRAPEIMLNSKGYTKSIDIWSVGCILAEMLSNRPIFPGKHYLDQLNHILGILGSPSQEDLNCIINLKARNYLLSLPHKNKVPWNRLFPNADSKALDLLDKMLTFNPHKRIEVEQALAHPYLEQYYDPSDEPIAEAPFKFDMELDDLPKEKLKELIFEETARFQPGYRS

Target: T1, human ERK-2 (Mitogen Activated Kinase 1) (Homo sapiens, UniProt P28482)
T1 construct: n-terminal 6-His fusion protein in E. coli and corresponding to aa 8-360; 6-His (N); made in house; host or cells: E. coli
Experiment: ERK-2 Enzymatic Assay
Format: biochemical
Excerpt: Table 1 contains representative data for Examples disclosed herein.

Compound	IC50
Cc1cc(-n2nnc3cc(-c4ccnc(Nc5ccnn5C)n4)ccc32)n(-c2ccccn2)n1 [Example 82, 4-(1-(3-methyl-1-(pyridin-2-yl)-1H-pyrazol-5-yl)-1H-benzo[d][1,2,3]triazol-5-yl)-N-(1-methyl-1H-pyrazol-5-yl)pyrimidin-2-amine]	< 1000 nM
CC(C)OCCCn1nnc2cc(-c3ccnc(Nc4ccnn4C)n3)ccc21 [Example 102, 4-(1-(3-isopropoxypropyl)-1H-benzo[d][1,2,3]triazol-5-yl)-N-(1-methyl-1H-pyrazol-5-yl)pyrimidin-2-amine]	< 1000 nM
Cn1nccc1Nc1nccc(-c2cnc3c(c2)nnn3Cc2ccc(Cl)cc2)n1 [Example 116, 4-(3-(4-chlorobenzyl)-3H-[1,2,3]triazolo[4,5-b]pyridin-6-yl)-N-(1-methyl-1H-pyrazol-5-yl)pyrimidin-2-amine]	< 1000 nM
Cn1nccc1Nc1nccc(-c2ccc3c(c2)nnn3CC2CN(CC(F)(F)F)C2)n1 [Example 64, N-(1-methyl-1H-pyrazol-5-yl)-4-(1-((1-(2,2,2-trifluoroethyl)azetidin-3-yl)methyl)-1H-benzo[d][1,2,3]triazol-5-yl)pyrimidin-2-amine]	< 1000 nM
COc1ncccc1Cn1nnc2cc(-c3ccnc(Nc4ccnn4C)c3)ccc21 [Example 54, 4-(1-((2-methoxypyridin-3-yl)methyl)-1H-benzo[d][1,2,3]triazol-5-yl)-N-(1-methyl-1H-pyrazol-5-yl)pyridin-2-amine]	< 1000 nM
Cn1ccc(Cn2nnc3cc(-c4ccnc(Nc5ccnn5C)n4)ccc32)n1 [Example 32, 4-(1-((1-methyl-1H-pyrazol-3-yl)methyl)-1H-benzo[d][1,2,3]triazol-5-yl)-N-(1-methyl-1H-pyrazol-5-yl)pyrimidin-2-amine]	< 1000 nM
Cn1nccc1Nc1nccc(-c2ccc3c(c2)nnn3CC2(c3ccc(OC(F)(F)F)cc3)CC2)n1 [Example 47, N-(1-methyl-1H-pyrazol-5-yl)-4-(1-((1-(4-(trifluoromethoxy)phenyl)cyclopropyl)methyl)-1H-benzo[d][1,2,3]triazol-5-yl)pyrimidin-2-amine]	< 1000 nM
COc1ccc(Cn2nnc3cc(-c4ccnc(NCC(C)(C)CO)n4)ccc32)cc1F [Example 16]	< 1000 nM
Cn1nccc1Nc1nccc(-c2ccc3c(c2)nnn3CC2COC2)n1 [Example 61, N-(1-methyl-1H-pyrazol-5-yl)-4-(1-(oxetan-3-ylmethyl)-1H-benzo[d][1,2,3]triazol-5-yl)pyrimidin-2-amine]	< 1000 nM
COCC(C)(C)Cn1nnc2cc(-c3ccnc(Nc4ccnn4C)n3)ccc21 [Example 46, 4-(1-(3-methoxy-2,2-dimethylpropyl)-1H-benzo[d][1,2,3]triazol-5-yl)-N-(1-methyl-1H-pyrazol-5-yl)pyrimidin-2-amine]	< 1000 nM
Cn1nccc1Nc1nccc(-c2ccc3c(c2)nnn3CC2CCCC2)n1 [Example 29, 4-(1-(cyclopentylmethyl)-1H-benzo[d][1,2,3]triazol-5-yl)-N-(1-methyl-1H-pyrazol-5-yl)pyrimidin-2-amine]	< 1000 nM
CCOCCCn1nnc2cc(-c3ccnc(Nc4ccnn4C)n3)ccc21 [Example 43, 4-(1-(3-ethoxypropyl)-1H-benzo[d][1,2,3]triazol-5-yl)-N-(1-methyl-1H-pyrazol-5-yl)pyrimidin-2-amine]	< 1000 nM
CCOCC1(Cn2nnc3cc(-c4ccnc(Nc5ccnn5C)n4)ccc32)CC1 [Example 45, 4-(1-((1-(ethoxymethyl)cyclopropyl)methyl)-1H-benzo[d][1,2,3]triazol-5-yl)-N-(1-methyl-1H-pyrazol-5-yl)pyrimidin-2-amine]	< 1000 nM
COc1ccc(Cn2nnc3cc(-c4ccnc(N[C@@H]5CCOC[C@H]5F)n4)ccc32)cc1F [Example 6, 4-(1-(3-fluoro-4-methoxybenzyl)-1H-benzoyl[d][1,2,3]triazol-5-yl)-N-((3S,4R)-3-fluorotetrahydro-2H-pyran-4-yl)pyrimidin-2-amine]	< 1000 nM
COC(C)(C)Cn1nnc2cc(-c3ccnc(Nc4ccnn4C)n3)ccc21 [Example 44, 4-(1-(2-methoxy-2-methylpropyl)-1H-benzo[d][1,2,3]triazol-5-yl)-N-(1-methyl-1H-pyrazol-5-yl)pyrimidin-2-amine]	< 1000 nM
Cn1nccc1Nc1nccc(-c2ccc3c(c2)nnn3CC2CCCCO2)n1 (centres unmarked) [Example 101, N-(1-methyl-1H-pyrazol-5-yl)-4-(1-((tetrahydro-2H-pyran-2-yl)methyl)-1H-benzoyl[d][1,2,3]triazol-5-yl)pyrimidin-2-amine]	< 1000 nM
Cn1nccc1Nc1nccc(-c2ccc3c(c2)nnn3CCn2cc(Cl)cn2)n1 [Example 4, 4-(1-(2-(4-chloro-1H-pyrazol-1-yl)ethyl)-1H-benzo[d][1,2,3]triazol-5-yl)-N-(1-methyl-1H-pyrazol-5-yl)pyrimidin-2-amine]	< 1000 nM
Cn1nccc1Nc1nccc(-c2ccc3c(c2)nnn3CC(C)(F)F)n1 [Example 31, 4-(1-(2,2-difluoropropyl)-1H-benzo[d][1,2,3]triazol-5-yl)-N-(1-methyl-1H-pyrazol-5-yl)pyrimidin-2-amine]	< 1000 nM
CN1CC(n2nnc3cc(-c4ccnc(Nc5cnn(C)c5)n4)ccc32)[C@H](c2ccc(F)cc2F)C1 (stereo partly drawn) [Example 73, 4-(1-((3S,4R)-4-(2,4-difluorophenyl)-1-methylpyrrolidin-3-yl)-1H-benzo[d][1,2,3]triazol-5-yl)-N(1-methyl-1H-pyrazol-4-yl)pyrimidin-2-amine]	< 1000 nM
COc1ccc(Cn2nnc3cc(-c4ccnc(Nc5ccnn5C)n4)cnc32)cc1F [Example 5, 4-(3-(3-fluoro-4-methoxybenzyl)-3H-[1,2,3]triazolo[4,5-b]pyridin-6-yl)-N-(1-methyl-1H-pyrazol-5-yl)pyrimidin-2-amine]	< 1000 nM
Cn1nccc1Nc1nccc(-c2ccc3c(c2)nnn3CC2(c3ccccc3)CCNCC2)n1 [Example 84, N-(1-methyl-1H-pyrazol-5-yl)-4-(1-((4-phenylpiperidin-4-yl)methyl)-1H-benzo[d][1,2,3]triazol-5-yl)pyrimidin-2-amine]	< 1000 nM

More lines, now with the values ahead:

IC50	Compound
< 1000 nM	Cn1nccc1Nc1cc(-c2cnc3c(c2)nnn3Cc2cccc(Cl)c2)ccn1 [Example 115, 4-(3-(3-chlorobenzyl)-3H-[1,2,3]triazolo[4,5-b]pyridin-6-yl)-N-(1-methyl-1H-pyrazol-5-yl)pyridin-2-amine]
< 1000 nM	CCC(C)Cn1nnc2cc(-c3ccnc(Nc4cnn(C)c4)n3)ccc21 (centres unmarked) [Example 96, N-(1-methyl-1H-pyrazol-4-yl)-4-(1-(2-methylbutyl)-1H-benzo[d][1,2,3]triazol-5-yl)pyrimidin-2-amine]
< 1000 nM	COc1ccc(Cn2nnc3cc(-c4ccnc(NC(C)(C)CN5CCOCC5)n4)ccc32)cc1F [Example 23, 4-(1-(3-fluoro-4-methoxybenzyl)-1H-benzo[d][1,2,3]triazol-5-yl)-N-(2-methyl-1-morpholinopropan-2-yl)pyrimidin-2-amine]
< 1000 nM	Cn1nccc1Nc1nccc(-c2cnc3c(c2)nnn3CCc2cccc(Cl)c2)n1 [Example 118, 4-(3-(3-chlorophenethyl)-3H-[1,2,3]triazolo[4,5-b]pyridin-6-yl)-N-(1-methyl-1H-pyrazol-5-yl)pyrimidin-2-amine]
< 1000 nM	COc1ccc(Cn2nnc3cc(-c4ccnc(Nc5c(C)nn(C)c5C)n4)ccc32)cc1F [Example 22, 4-(1-(3-fluoro-4-methoxybenzyl)-1H-benzo[d][1,2,3]triazol-5-yl)-N-(1,3,5-trimethyl-1H-pyrazol-4-yl)pyrimidin-2-amine]
< 1000 nM	Cn1nccc1Nc1nccc(-c2ccc3c(c2)nnn3CCc2cccc(Cl)c2)n1 [Example 50, 4-(1-(3-chlorophenethyl)-1H-benzo[d][1,2,3]triazol-5-yl)-N-(1-methyl-1H-pyrazol-5-yl)pyrimidin-2-amine]
< 1000 nM	COc1ccc(Cn2nnc3cc(-c4ccnc(N[C@H]5CCOC[C@H]5F)n4)ccc32)cc1F [Example 7, 4-(1-(3-fluoro-4-methoxybenzyl)-1H-benzo[d][1,2,3]triazol-5-yl)-N-((3S,4S)-3-fluorotetrahydro-2H-pyran-4-yl)pyrimidin-2-amine]
< 1000 nM	COc1ccc(Cn2nnc3cc(-c4ccnc(NCC(C)(C)O)n4)ccc32)cc1F [Example 18, 1-((4-(1-(3-fluoro-4-methoxybenzyl)-1H-benzo[d][1,2,3]triazol-5-yl)pyrimidin-2-yl)amino)-2-methylpropan-2-ol]
< 1000 nM	COCCN1C[C@H](c2ccc(F)cc2)[C@@H](n2nnc3cc(-c4ccnc(Nc5ccnn5C)n4)ccc32)C1 [Example 83, 4-(1-((3R,4S)-4-(4-fluorophenyl)-1-(2-methoxyethyl)pyrrolidin-3-yl)-1H-benzo[d][1,2,3]triazol-5-yl)-N-(1-methyl-1H-pyrazol-5-yl)pyrimidin-2-amine]
< 1000 nM	Cn1nccc1Nc1nccc(-c2ccc3c(c2)nnn3CC2CCC(F)(F)CC2)n1 [Example 33, 4-(1-((4,4-difluorocyclohexyl)methyl)-1H-benzo[d][1,2,3]triazol-5-yl)-N-(1-methyl-1H-pyrazol-5-yl)pyrimidin-2-amine]
< 1000 nM	CC(C)Cn1nnc2cc(-c3ccnc(Nc4ccnn4C)n3)cnc21 [Example 114, 4-(3-isobutyl-3H-[1,2,3]triazolo[4,5-b]pyridin-6-yl)-N-(1-methyl-1H-pyrazol-5-yl)pyrimidin-2-amine]
< 1000 nM	COc1ccc(Cn2nnc3cc(-c4ccnc(NC5CCC5)n4)ccc32)cc1F [Example 12, N-cyclobutyl-4-(1-(3-fluoro-4-methoxybenzyl)-1H-benzo[d][1,2,3]triazol-5-yl)pyrimidin-2-amine]
< 1000 nM	Cn1nccc1Nc1nccc(-c2ccc3c(c2)nnn3C2CCC(F)(F)CC2)n1 [Example 35, 4-(1-(4,4-difluorocyclohexyl)-1H-benzo[d][1,2,3]triazol-5-yl)-N-(1-methyl-1H-pyrazol-5-yl)pyrimidin-2-amine]
< 1000 nM	CC(O)CCn1nnc2cc(-c3ccnc(Nc4ccnn4C)n3)ccc21 (centres unmarked) [Example 41, 4-(5-(2-((1-methyl-1H-pyrazol-5-yl)amino)pyrimidin-4-yl)-1H-benzo[d][1,2,3]triazol-1-yl)butan-2-ol]
